Measured values taken from the supplement of paper PMC8728848.
Some of the results follow.

What was measured:
Test in all cases: glycan array binding signal (z-score within array); higher = stronger binding
Conditions in all cases: glycan notation: IUPAC condensed, linker removed
[1] = target: Gal(b1-3)GlcNAc(b1-6)Gal(b1-4)GlcNAc
Outline: (§1)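 Glycan array data were curated from 3228 arrays in the Consortium for Functional Glycomics database and kept only where the protein sequence was available. Glycan names were converted to IUPAC-condensed notation, and columns mapping to the same glycan were averaged. The binding signal is a within-array Z-score, averaged across arrays of the same protein sequence at different concentrations or buffers and across linkers. Negative Z-scores can be read as non-binding.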

[2] = target: Gal(b1-3)GlcNAc(b1-6)GalNAc
Outline: as §1

[3] = target: Gal(b1-3)GlcNAc(b1-6)[Gal(b1-3)]GalNAc
Outline: as §1

[4] = target: Gal(b1-3)GlcNAc6S
Outline: as §1

[5] = target: Gal(b1-3)[Fuc(a1-4)]GlcNAc
Outline: as §1

[6] = target: Gal(b1-3)[Fuc(a1-4)]GlcNAc(b1-2)Man
Outline: as §1

[7] = target: Gal(b1-3)[Fuc(a1-4)]GlcNAc(b1-2)Man(a1-3)[Gal(b1-3)[Fuc(a1-4)]GlcNAc(b1-2)Man(a1-6)]Man(b1-4)GlcNAc(b1-4)GlcNAc
Outline: as §1

[8] = target: Gal(b1-3)[Fuc(a1-4)]GlcNAc(b1-2)Man(a1-3)[Gal(b1-3)[Fuc(a1-4)]GlcNAc(b1-2)Man(a1-6)]Man(b1-4)GlcNAc(b1-4)[Fuc(a1-6)]GlcNAc
Outline: as §1

[9] = target: Gal(b1-3)[Fuc(a1-4)]GlcNAc(b1-3)Gal(b1-3)[Fuc(a1-4)]GlcNAc
Outline: as §1

[10] = target: Gal(b1-3)[Fuc(a1-4)]GlcNAc(b1-3)Gal(b1-4)GlcNAc
Outline: as §1

[11] = target: Gal(b1-3)[Fuc(a1-4)]GlcNAc(b1-3)Gal(b1-4)[Fuc(a1-3)]GlcNAc
Outline: as §1

[12] = target: Gal(b1-3)[Fuc(a1-4)]GlcNAc(b1-6)GalNAc
Outline: as §1

[13] = target: Gal(b1-3)[GlcNAc(b1-6)]GalNAc
Outline: as §1

[14] = target: Gal(b1-3)[Neu5Ac(a2-6)]GalNAc
Outline: as §1

[15] = target: Gal(b1-3)[Neu5Ac(a2-6)]GlcNAc(b1-4)Gal(b1-4)Glc
Outline: as §1

[16] = target: Gal(b1-3)[Neu5Ac(a2-6)]GlcNAc(b1-6)Gal(b1-4)Glc
Outline: as §1

[17] = target: Gal(b1-3)[Neu5Ac(b2-6)]GalNAc
Outline: as §1

[18] = target: Gal(b1-4)Gal
Outline: as §1

[19] = target: Gal(b1-4)GalNAc(a1-3)[Fuc(a1-2)]Gal(b1-4)GlcNAc
Outline: as §1

[20] = target: Gal(b1-4)GalNAc(b1-3)[Fuc(a1-2)]Gal(b1-4)GlcNAc
Outline: as §1

[21] = target: Gal(b1-4)Glc
Outline: as §1

[22] = target: Gal(b1-4)Glc6S
Outline: as §1

[23] = target: Gal(b1-4)GlcNAc
Outline: as §1

[24] = target: Gal(b1-4)GlcNAc(a1-6)Gal(b1-4)GlcNAc
Outline: as §1

[25] = target: Gal(b1-4)GlcNAc(b1-2)Man
Outline: as §1

[26] = target: Gal(b1-4)GlcNAc(b1-2)Man(a1-3)Man(b1-4)GlcNAc(b1-4)GlcNAc
Outline: as §1

[27] = target: Gal(b1-4)GlcNAc(b1-2)Man(a1-3)[Gal(b1-4)GlcNAc(b1-2)Man(a1-6)]Man(b1-4)GlcNAc(b1-4)GlcNAc
Outline: as §1

[28] = target: Gal(b1-4)GlcNAc(b1-2)Man(a1-3)[Gal(b1-4)GlcNAc(b1-2)Man(a1-6)]Man(b1-4)GlcNAc(b1-4)[Fuc(a1-6)]GlcNAc
Outline: as §1

[29] = target: Gal(b1-4)GlcNAc(b1-2)Man(a1-3)[Gal(b1-4)GlcNAc(b1-2)Man(a1-6)][Gal(b1-4)GlcNAc(b1-4)]Man(b1-4)GlcNAc(b1-4)[Fuc(a1-6)]GlcNAc
Outline: as §1

[30] = target: Gal(b1-4)GlcNAc(b1-2)Man(a1-3)[Gal(b1-4)GlcNAc(b1-2)Man(a1-6)][GlcNAc(b1-4)]Man(b1-4)GlcNAc(b1-4)[Fuc(a1-6)]GlcNAc
Outline: as §1

[31] = target: Gal(b1-4)GlcNAc(b1-2)Man(a1-3)[Gal(b1-4)GlcNAc(b1-2)][GlcNAc(b1-4)]Man(b1-4)GlcNAc(b1-4)GlcNAc
Outline: as §1

[32] = target: Gal(b1-4)GlcNAc(b1-2)Man(a1-3)[GlcNAc(b1-2)Man(a1-6)]Man(b1-4)GlcNAc(b1-4)GlcNAc
Outline: as §1

[33] = target: Gal(b1-4)GlcNAc(b1-2)Man(a1-3)[GlcNAc(b1-4)][Gal(b1-4)GlcNAc(b1-2)Man(a1-6)]Man(b1-4)GlcNAc(b1-4)GlcNAc
Outline: as §1

[34] = target: Gal(b1-4)GlcNAc(b1-2)Man(a1-3)[Man(a1-6)]Man(b1-4)GlcNAc(b1-4)GlcNAc
Outline: as §1

[35] = target: Gal(b1-4)GlcNAc(b1-2)Man(a1-6)Man(b1-4)GlcNAc(b1-4)GlcNAc
Outline: as §1

[36] = target: Gal(b1-4)GlcNAc(b1-2)Man(a1-6)[GlcNAc(b1-2)Man(a1-3)]Man(b1-4)GlcNAc(b1-4)GlcNAc
Outline: as §1

[37] = target: Gal(b1-4)GlcNAc(b1-2)Man(a1-6)[Man(a1-3)]Man(b1-4)GlcNAc(b1-4)GlcNAc
Outline: as §1

[38] = target: Gal(b1-4)GlcNAc(b1-2)[Gal(b1-4)GlcNAc(b1-4)]Man(a1-3)[Gal(b1-4)GlcNAc(b1-2)Man(a1-6)]Man(b1-4)GlcNAc(b1-4)GlcNAc
Outline: as §1

[39] = target: Gal(b1-4)GlcNAc(b1-2)[Gal(b1-4)GlcNAc(b1-4)]Man(a1-3)[Gal(b1-4)GlcNAc(b1-2)[Gal(b1-4)GlcNAc(b1-6)]Man(a1-6)]Man(b1-4)GlcNAc(b1-4)GlcNAc
Outline: as §1

[40] = target: Gal(b1-4)GlcNAc(b1-2)[Gal(b1-4)GlcNAc(b1-4)]Man(a1-3)[GlcNAc(b1-4)][Gal(b1-4)GlcNAc(b1-2)Man(a1-6)]Man(b1-4)GlcNAc(b1-4)GlcNAc
Outline: as §1

[41] = target: Gal(b1-4)GlcNAc(b1-2)[Gal(b1-4)GlcNAc(b1-4)]Man(a1-3)[GlcNAc(b1-4)][Gal(b1-4)GlcNAc(b1-2)[Gal(b1-4)GlcNAc(b1-6)]Man(a1-6)]Man(b1-4)GlcNAc(b1-4)GlcNAc
Outline: as §1

[42] = target: Gal(b1-4)GlcNAc(b1-2)[Gal(b1-4)GlcNAc(b1-6)]Man(a1-6)[Gal(b1-4)GlcNAc(b1-2)Man(a1-3)]Man(b1-4)GlcNAc(b1-4)GlcNAc
Outline: as §1

[43] = target: Gal(b1-4)GlcNAc(b1-2)[Gal(b1-4)GlcNAc(b1-6)]Man(a1-6)[Gal(b1-4)GlcNAc(b1-2)Man(a1-3)]Man(b1-4)GlcNAc(b1-4)[Fuc(a1-6)]GlcNAc
Outline: as §1

[44] = target: Gal(b1-4)GlcNAc(b1-2)[Gal(b1-4)GlcNAc(b1-6)]Man(a1-6)[GlcNAc(b1-4)][Gal(b1-4)GlcNAc(b1-2)Man(a1-3)]Man(b1-4)GlcNAc(b1-4)GlcNAc
Outline: as §1

[45] = target: Gal(b1-4)GlcNAc(b1-2)[Gal(b1-4)GlcNAc(b1-6)]Man(a1-6)[GlcNAc(b1-4)][Gal(b1-4)GlcNAc(b1-2)[Gal(b1-4)GlcNAc(b1-4)]Man(a1-3)]Man(b1-4)GlcNAc(b1-4)[Fuc(a1-6)]GlcNAc
Outline: as §1

[46] = target: Gal(b1-4)GlcNAc(b1-3)Gal(b1-3)GalNAc
Outline: as §1

[47] = target: Gal(b1-4)GlcNAc(b1-3)Gal(b1-3)GlcNAc
Outline: as §1

[48] = target: Gal(b1-4)GlcNAc(b1-3)Gal(b1-4)Glc
Outline: as §1

[49] = target: Gal(b1-4)GlcNAc(b1-3)Gal(b1-4)GlcNAc
Outline: as §1

[50] = target: Gal(b1-4)GlcNAc(b1-3)Gal(b1-4)GlcNAc(b1-2)Man(a1-3)[Gal(b1-4)GlcNAc(b1-3)Gal(b1-4)GlcNAc(b1-2)Man(a1-6)]Man(b1-4)GlcNAc(b1-4)GlcNAc
Outline: as §1

[51] = target: Gal(b1-4)GlcNAc(b1-3)Gal(b1-4)GlcNAc(b1-2)Man(a1-3)[Gal(b1-4)GlcNAc(b1-3)Gal(b1-4)GlcNAc(b1-2)Man(a1-6)]Man(b1-4)GlcNAc(b1-4)[Fuc(a1-6)]GlcNAc
Outline: as §1

[52] = target: Gal(b1-4)GlcNAc(b1-3)Gal(b1-4)GlcNAc(b1-2)[Gal(b1-4)GlcNAc(b1-3)Gal(b1-4)GlcNAc(b1-6)]Man(a1-6)[Gal(b1-4)GlcNAc(b1-3)Gal(b1-4)GlcNAc(b1-2)Man(a1-3)]Man(b1-4)GlcNAc(b1-4)GlcNAc
Outline: as §1

[53] = target: Gal(b1-4)GlcNAc(b1-3)Gal(b1-4)GlcNAc(b1-2)[Gal(b1-4)GlcNAc(b1-3)Gal(b1-4)GlcNAc(b1-6)]Man(a1-6)[Gal(b1-4)GlcNAc(b1-3)Gal(b1-4)GlcNAc(b1-2)Man(a1-3)]Man(b1-4)GlcNAc(b1-4)[Fuc(a1-6)]GlcNAc
Outline: as §1

B1: NK11 (Sus scrofa) (peptide)
chain: KISKRILTGKK
- glycan array binding signal (z-score) [1]: 0.211
- glycan array binding signal (z-score) [2]: 0.832
- glycan array binding signal (z-score) [3]: -1.61
- glycan array binding signal (z-score) [4]: 0.877
- glycan array binding signal (z-score) [5]: -0.439
- glycan array binding signal (z-score) [6]: 0.171
- glycan array binding signal (z-score) [7]: -1.13
- glycan array binding signal (z-score) [8]: -0.953
- glycan array binding signal (z-score) [9]: -0.425
- glycan array binding signal (z-score) [10]: 3.41
- glycan array binding signal (z-score) [11]: -0.524
- glycan array binding signal (z-score) [12]: 0.704
- glycan array binding signal (z-score) [13]: -0.651
- glycan array binding signal (z-score) [14]: 1.56
- glycan array binding signal (z-score) [15]: -0.206
- glycan array binding signal (z-score) [16]: -0.305
- glycan array binding signal (z-score) [17]: 0.115
- glycan array binding signal (z-score) [18]: -0.422
- glycan array binding signal (z-score) [19]: -1.44
- glycan array binding signal (z-score) [20]: -0.195
- glycan array binding signal (z-score) [21]: -0.144
- glycan array binding signal (z-score) [22]: 0.225
- glycan array binding signal (z-score) [23]: -0.612
- glycan array binding signal (z-score) [24]: 0.093
- glycan array binding signal (z-score) [25]: -0.259
- glycan array binding signal (z-score) [26]: 0.233
- glycan array binding signal (z-score) [27]: -0.619
- glycan array binding signal (z-score) [28]: -0.25
- glycan array binding signal (z-score) [29]: -0.533
- glycan array binding signal (z-score) [30]: 0.327
- glycan array binding signal (z-score) [31]: -0.144
- glycan array binding signal (z-score) [32]: -0.514
- glycan array binding signal (z-score) [33]: -0.789
- glycan array binding signal (z-score) [34]: 0.009
- glycan array binding signal (z-score) [35]: -0.6
- glycan array binding signal (z-score) [36]: 0.152
- glycan array binding signal (z-score) [37]: 0.215
- glycan array binding signal (z-score) [38]: -0.931
- glycan array binding signal (z-score) [39]: -1.25
- glycan array binding signal (z-score) [40]: -0.351
- glycan array binding signal (z-score) [41]: -0.53
- glycan array binding signal (z-score) [42]: -0.892
- glycan array binding signal (z-score) [43]: 1.15
- glycan array binding signal (z-score) [44]: -0.241
- glycan array binding signal (z-score) [45]: -0.811
- glycan array binding signal (z-score) [46]: -0.605
- glycan array binding signal (z-score) [47]: -0.763
- glycan array binding signal (z-score) [48]: -0.005
- glycan array binding signal (z-score) [49]: -0.397
- glycan array binding signal (z-score) [50]: 1.47
- glycan array binding signal (z-score) [51]: 2.38
- glycan array binding signal (z-score) [52]: -0.957
- glycan array binding signal (z-score) [53]: 1.67
